1 molecule from patent publication US20060073145A1 can be followed below.

Results are given in words; binding and its absence hold for the method and conditions named. Some binding calls cover weakened binding; strength is not graded here.

Assay [1] has as its target T1, recombinant human soluble CD14 (clone 523) (human) (UniProt P08571).
T1 sequence (looked up): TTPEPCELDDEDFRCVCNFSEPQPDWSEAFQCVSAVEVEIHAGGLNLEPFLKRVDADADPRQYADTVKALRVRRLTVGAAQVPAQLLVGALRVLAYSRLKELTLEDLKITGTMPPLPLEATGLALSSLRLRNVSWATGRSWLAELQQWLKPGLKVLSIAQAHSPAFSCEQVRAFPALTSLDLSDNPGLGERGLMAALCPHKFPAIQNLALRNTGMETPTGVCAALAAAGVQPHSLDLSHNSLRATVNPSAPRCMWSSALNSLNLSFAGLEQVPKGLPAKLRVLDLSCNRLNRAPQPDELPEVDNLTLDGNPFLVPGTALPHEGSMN
In words: ELISA on sCD14-coated plate. A general note: In an ELISA, binding on a coated surface is turned into a signal by an enzyme label.

Assay [2] addresses T1, recombinant human soluble CD14 (clone 523) (human). Nature of the assay: ELISA screening.

B1: monoclonal antibody 18E12 (antibody, V domains shown)
VH: PPLESGPGLVAPSQSLSITCTVSGFSLTNYDISWIRQPPGKGLEWLGVIWTSGGTNYNSAFMSRLSITKDNSKSQVFLKMNGLQTDDTGISYCVRGDGNFYLYNFDYWGQGTTLTVSS
VL: MTQTPSSLSASLGDRVTISCRASQDIKNYLNWYQQGPGGTVKVLIYYTSRLHSGVPSRFSGSGSGTDYSLTISNLEQEDFATYFCQRGDTLPWTFGGGTKLEIKT
B1: the binding result in assay [1] and in assay [2] was “binds” in each case.
